Data taken from article PMC11749260.
Results are given in words; binding and its absence hold for the method and conditions named. Binding seen in cells or lysates may run through a third protein. Some binding calls cover weakened binding; strength is not graded here. For part of these data: Sequences can lack the tags named with a protein.

T1: Flag-tagged Sugt1 (suppressor of G2 allele of SKP1 homolog) (UniProt Q9CX34)
T1 sequence: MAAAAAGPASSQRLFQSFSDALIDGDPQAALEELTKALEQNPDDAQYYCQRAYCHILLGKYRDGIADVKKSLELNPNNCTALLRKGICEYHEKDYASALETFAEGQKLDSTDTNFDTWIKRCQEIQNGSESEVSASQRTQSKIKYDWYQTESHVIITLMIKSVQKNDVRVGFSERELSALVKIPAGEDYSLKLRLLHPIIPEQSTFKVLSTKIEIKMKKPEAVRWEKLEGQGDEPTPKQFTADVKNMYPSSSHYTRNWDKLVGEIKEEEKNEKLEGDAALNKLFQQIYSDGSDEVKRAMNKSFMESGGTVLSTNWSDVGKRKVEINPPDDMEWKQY

T2: Trim21 (E3 ubiquitin-protein ligase) (mouse (endogenous in C2C12)) (UniProt Q62191)
T2 sequence: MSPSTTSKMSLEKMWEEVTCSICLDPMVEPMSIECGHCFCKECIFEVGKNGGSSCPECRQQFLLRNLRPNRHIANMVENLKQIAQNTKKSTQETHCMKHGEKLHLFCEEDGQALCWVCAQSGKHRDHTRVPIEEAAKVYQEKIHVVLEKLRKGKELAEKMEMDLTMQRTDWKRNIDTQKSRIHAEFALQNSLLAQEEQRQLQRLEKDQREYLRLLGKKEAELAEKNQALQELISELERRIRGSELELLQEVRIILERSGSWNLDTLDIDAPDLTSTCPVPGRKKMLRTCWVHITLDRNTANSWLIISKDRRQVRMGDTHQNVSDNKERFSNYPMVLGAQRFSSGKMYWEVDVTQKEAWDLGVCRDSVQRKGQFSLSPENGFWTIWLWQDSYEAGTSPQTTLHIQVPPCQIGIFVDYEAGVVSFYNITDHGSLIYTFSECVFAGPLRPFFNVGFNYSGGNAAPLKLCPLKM


How the values were obtained:
[1] = biological target: T1, Flag-tagged Sugt1 (suppressor of G2 allele of SKP1 homolog); assay: co-IP; Flag-Sugt1 overexpressed in C2C12; lysate incubated with anti-Flag magnetic beads at 4°C overnight; Western blotting for Trim21
[2] = biological target: T2, Trim21 (E3 ubiquitin-protein ligase) (mouse (endogenous in C2C12)); assay: co-IP; IP of endogenous Trim21 from C2C12 myoblast lysate with Trim21 antibody (10 µg, overnight at 4°C) and Dynabeads Protein G; Western blotting of the retrieved proteins

Row | Binder | binding [1] | binding [2]
1 | Trim21 (E3 ubiquitin-protein ligase) (protein, UniProt Q62191 1-470) MSPSTTSKMSLEKMWEEVTCSICLDPMVEPMSIECGHCFCKECIFEVGKNGGSSCPECRQQFLLRNLRPNRHIANMVENLKQIAQNTKKSTQETHCMKHGEKLHLFCEEDGQALCWVCAQSGKHRDHTRVPIEEAAKVYQEKIHVVLEKLRKGKELAEKMEMDLTMQRTDWKRNIDTQKSRIHAEFALQNSLLAQEEQRQLQRLEKDQREYLRLLGKKEAELAEKNQALQELISELERRIRGSELELLQEVRIILERSGSWNLDTLDIDAPDLTSTCPVPGRKKMLRTCWVHITLDRNTANSWLIISKDRRQVRMGDTHQNVSDNKERFSNYPMVLGAQRFSSGKMYWEVDVTQKEAWDLGVCRDSVQRKGQFSLSPENGFWTIWLWQDSYEAGTSPQTTLHIQVPPCQIGIFVDYEAGVVSFYNITDHGSLIYTFSECVFAGPLRPFFNVGFNYSGGNAAPLKLCPLKM | binds | –
2 | Sugt1 (suppressor of G2 allele of SKP1 homolog), endogenous (protein, UniProt Q9CX34 1-336) MAAAAAGPASSQRLFQSFSDALIDGDPQAALEELTKALEQNPDDAQYYCQRAYCHILLGKYRDGIADVKKSLELNPNNCTALLRKGICEYHEKDYASALETFAEGQKLDSTDTNFDTWIKRCQEIQNGSESEVSASQRTQSKIKYDWYQTESHVIITLMIKSVQKNDVRVGFSERELSALVKIPAGEDYSLKLRLLHPIIPEQSTFKVLSTKIEIKMKKPEAVRWEKLEGQGDEPTPKQFTADVKNMYPSSSHYTRNWDKLVGEIKEEEKNEKLEGDAALNKLFQQIYSDGSDEVKRAMNKSFMESGGTVLSTNWSDVGKRKVEINPPDDMEWKQY | – | binds
3 | p21 (protein, UniProt P39689 1-159) MSNPGDVRPVPHRSKVCRCLFGPVDSEQLRRDCDALMAGCLQEARERWNFDFVTETPLEGNFVWERVRSLGLPKVYLSPGSRSRDDLGGDKRPSTSSALLQGPAPEDHVALSLSCTLVSERPEDSPGGPGTSQGRKRRQTSLTDFYHSKRRLVFCKRKP | – | binds
